Measurements as given in PubChem BioAssay AID2685 (National Center for Advancing Translational Sciences (NCATS), 2010).
The list shows a part of the results. Further columns of the screen follow, without active or inactive calls. Most of these compounds were active or inconclusive in the main read-out, so they are no random draw. Words in brackets tell the shape of the fitted curve; partial curves, single points and poor fits give uncertain potencies.

Assay: qHTS Assay for Lipid Storage Modulators in Drosophila S3 Cells;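 as to cell number change: cells counted by Cell Tracker Red CMTPX staining in the red channel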
Settings: BODIPY lipid droplet fluorescence, 18-24 h; for cell number change: measured here: cell count max response, cells fed with added oleic acid
Method in brief: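 Drosophila S3 cells got compounds at several concentrations plus oleic acid (400 uM solution). Laser-scanning cytometry with 488 nm excitation read lipid droplets at 500-530 nm and cells at 575-640 nm. Percent activity was relative to 20 uM Triacsin C.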

[1] = measured here: lipid fluorescence (Fed channel) AC50, cells fed with added oleic acid
[2] = measured here: cell number channel AC50, cells fed with added oleic acid

Compound | cell number change [%] | AC50 [1] | AC50 [2]
COc1ccc(Cl)cc1C(=O)NCCN1CCOCC1 | -4.21 | 32.6 µM [rising, single point] | 
Cc1ccc2ncccc2c1 | 13.6 | 3.66 µM [rising, partial curve] | 
Cc1ccc(S(=O)(=O)N[C@@H](Cc2ccccc2)C(=O)N2CCC(C(=O)N[C@@H](CC(C)C)C(=O)O)CC2)cc1 | 12 | 13 µM [rising, partial curve, poor fit] | 
CCC(C)n1cnc2c(c1=O)c1nc3ccccc3nc1n2-c1ccc2c(c1)OCCO2 (stereo not drawn) | 8.78 |  | 
O=C(C[n+]1ccc(C(=O)NCc2ccccc2)cc1)c1ccc(Cl)cc1 | 5.48 | 7.31 µM [rising, full curve] | 
CCOC(=O)C1CCN(c2c(C(=O)c3ccccc3)cnc3ccc(CC)cc23)CC1 | 55 |  | 20.6 µM [rising, partial curve]
CC(C)OC(=O)c1c(F)c(F)c(N2CCOCC2)c(F)c1F | -34.8 | 0.92 µM [falling, full curve, poor fit] | 29.1 µM [falling, single point]
COc1ccccc1CNC(=O)C(=O)Nc1ccc(C(=O)N2CCC(C)CC2)cc1 | 22.2 | 29.1 µM [rising, single point] | 
COc1ccc(-c2sc3cc(OC)c(OC)cc3c2C#CCCO)cc1 | -31.8 | 18.4 µM [falling, partial curve, poor fit] | 25.9 µM [falling, single point]
CCOC(=O)C1CCCCN1Cc1cccc(C(F)(F)F)c1 (stereo not drawn) | 16.6 | 0.651 µM [falling, single point] | 
N#Cc1cc2c(nc1SCC(=O)NCc1ccc3c(c1)OCO3)CCCCC2 | 17.3 | 0.517 µM [rising, partial curve] | 0.164 µM [rising, full curve, poor fit]
COc1ccccc1NC(=O)CN1CCN(C(=O)c2ccco2)CC1 | -9.67 | 2.91 µM [rising, single point] | 3.26 µM [rising, single point]
COC(=O)C1CCN(C(=O)COC(=O)c2cccc(NS(=O)(=O)c3ccccc3)c2)CC1 |  |  | 0.259 µM [rising, partial curve, poor fit]
CCC(C)NC(=O)Cn1cnc2sc(C)c(S(=O)(=O)N3CCN(c4ccccc4OC)CC3)c2c1=O (stereo not drawn) | 3.6 | 0.58 µM [rising, single point] | 
CC1=C(C(N)=O)C(c2ccccc2)n2nc(-c3cccc(C)c3)nc2N1 (stereo not drawn) | -3.87 | 0.13 µM [rising, full curve] | 
Cc1ccc(O)c(-c2cc(C(=O)Nc3ccc(S(=O)(=O)N4CC(C)OC(C)C4)cc3)[nH]n2)c1 (stereo not drawn) | -83.4 |  | 29.1 µM [falling, single point]
COc1ccc(CC(CC(=O)O)C(=O)Nc2ccccc2)cc1 (stereo not drawn) | 7.11 | 29.1 µM [rising, single point] | 
Cc1ccc(-n2ncc3c2CCCC3NC(=O)c2ccoc2)cc1C (stereo not drawn) | -64.6 | 0.0891 µM [falling, full curve] | 0.0794 µM [falling, full curve, poor fit]
CCCNC(=O)C(Cc1cccc(Cl)c1)NC(=O)c1ccc(C#N)cc1 (stereo not drawn) | -2.05 |  | 
Cc1cccc(N2CCN(S(=O)(=O)c3c(C)nc4scc(C)n4c3=O)CC2C)c1 (stereo not drawn) | -34.9 |  | 32.6 µM [falling, single point]
CSc1ccc(/C=C/C(=O)OCC(=O)N2CCN(S(=O)(=O)c3ccc(C)cc3C)CC2)cc1 | -17 | 0.0731 µM [falling, full curve, poor fit] | 0.164 µM [falling, full curve, poor fit]
O=C(COC(=O)Cn1cnc2ccccc21)NCCc1ccc(Cl)cc1 |  | 6.51 µM [falling, full curve] | 
O=C(CN(Cc1ccc(F)cc1)C(=O)c1csnn1)NCc1ccc2c(c1)OCO2 | 30.9 |  | 32.6 µM [rising, single point]
O=C(NNC(=O)C12CC3CC(CC(C3)C1)C2)c1cccc(O)c1 | 14.5 | 6.51 µM [rising, single point] | 
CCOC(=O)N1CCN(C(=O)c2ccccc2NC(=O)c2ccc(Br)cc2)CC1 | -4.72 | 0.259 µM [falling, full curve, poor fit] | 
CC(C)(C)C(=O)N1CCN(c2ccc([N+](=O)[O-])c(-n3nc(-c4ccccc4)c4ccccc4c3=O)c2)CC1 | 24 | 10.3 µM [rising, partial curve, poor fit] | 
N#CCCN1CCN(Cc2ccccc2)CCC1=O | 30.5 | 6.51 µM [rising, partial curve] | 
Cc1cccc(NC(=O)CSCC(=O)N2CCCc3ccccc32)c1 |  | 2.31 µM [falling, partial curve] | 0.184 µM [rising, full curve, poor fit]

A draw from above in order of formula weight, high to low:
Compound | cell number change [%] | AC50 [1] | AC50 [2]
CSc1ccc(/C=C/C(=O)OCC(=O)N2CCN(S(=O)(=O)c3ccc(C)cc3C)CC2)cc1 | -17 | 0.0731 µM [falling, full curve, poor fit] | 0.164 µM [falling, full curve, poor fit]
O=C(C[n+]1ccc(C(=O)NCc2ccccc2)cc1)c1ccc(Cl)cc1 | 5.48 | 7.31 µM [rising, full curve] | 
CC1=C(C(N)=O)C(c2ccccc2)n2nc(-c3cccc(C)c3)nc2N1 (stereo not drawn) | -3.87 | 0.13 µM [rising, full curve] | 
